Paper doi:10.1101/2024.09.09.612066

How the values were obtained:
Experiment in all cases: split reporter
[1] = molecular target: T1, BIM3-YFPc (BiFC) (Arabidopsis) (UniProt Q9FMB6)
T1 sequence: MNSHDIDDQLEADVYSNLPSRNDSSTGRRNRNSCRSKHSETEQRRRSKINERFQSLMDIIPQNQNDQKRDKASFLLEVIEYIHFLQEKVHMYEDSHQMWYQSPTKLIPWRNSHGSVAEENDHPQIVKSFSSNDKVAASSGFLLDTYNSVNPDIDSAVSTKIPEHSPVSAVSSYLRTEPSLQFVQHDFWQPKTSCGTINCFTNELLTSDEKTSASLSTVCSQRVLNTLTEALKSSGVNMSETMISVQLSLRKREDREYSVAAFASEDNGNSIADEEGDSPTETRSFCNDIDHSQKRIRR

[2] = molecular target: T2, BIM2-YFPc (BiFC) (Arabidopsis) (UniProt Q9CAA4)
T2 sequence: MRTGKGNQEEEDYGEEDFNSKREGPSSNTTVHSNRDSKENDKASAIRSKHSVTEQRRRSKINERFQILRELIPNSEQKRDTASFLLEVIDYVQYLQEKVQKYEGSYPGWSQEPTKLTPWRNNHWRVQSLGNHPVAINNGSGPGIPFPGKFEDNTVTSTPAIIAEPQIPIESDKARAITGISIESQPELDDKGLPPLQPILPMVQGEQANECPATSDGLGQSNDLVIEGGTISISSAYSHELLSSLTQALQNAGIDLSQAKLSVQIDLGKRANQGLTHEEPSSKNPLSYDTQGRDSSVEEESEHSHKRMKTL

[3] = molecular target: T3, BIM1-CFPc (BiFC) (Arabidopsis) (UniProt Q9LEZ3)
T3 sequence: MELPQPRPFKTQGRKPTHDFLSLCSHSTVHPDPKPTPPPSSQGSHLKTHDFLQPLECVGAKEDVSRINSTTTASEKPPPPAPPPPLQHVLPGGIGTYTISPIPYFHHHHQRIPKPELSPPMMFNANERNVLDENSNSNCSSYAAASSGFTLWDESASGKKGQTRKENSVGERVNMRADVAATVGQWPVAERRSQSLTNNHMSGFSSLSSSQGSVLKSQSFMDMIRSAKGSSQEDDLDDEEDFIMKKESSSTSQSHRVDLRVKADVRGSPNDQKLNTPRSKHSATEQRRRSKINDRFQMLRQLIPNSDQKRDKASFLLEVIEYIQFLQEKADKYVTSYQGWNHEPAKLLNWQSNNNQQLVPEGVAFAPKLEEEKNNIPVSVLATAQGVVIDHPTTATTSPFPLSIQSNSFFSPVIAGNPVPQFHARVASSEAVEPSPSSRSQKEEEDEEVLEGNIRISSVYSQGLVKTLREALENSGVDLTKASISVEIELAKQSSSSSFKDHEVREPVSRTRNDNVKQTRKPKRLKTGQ

binding [1]	binding [2]	Substance	binding [3]
binds	binds	YFPn-HaRxL106 FL (BiFC) (Hyaloperonospora arabidopsidis)	binds
		YFPn-HaRxL106 ΔC (BiFC) (SV40 | Hyaloperonospora arabidopsidis) (domain or fragment)	binds

These are yes or no findings as the source states them, for the method shown. Binding seen in cells or lysates may run through a third protein. Binding calls can cover weak binding; strength is not graded here.
